# Laboratory results from PubChem BioAssay AID212 (DTP/NCI, 2004).
# The list is a part of this screen's results and no random one: it gathers tests that were run many times, whatever their T/C, doses with no T/C, and many T/C values between a quarter and a half above the control. Further doses and runs are listed elsewhere. T/C gives the treated animals as a percentage of the vehicle group. Schedules are NCI's codes, taken here to give the interval after Q, in days (D) or hours (H), and the number of doses after X. Some T/C values carry the count of animals alive at the toxicity check (mostly the fifth day); where none is given, no animal had died by that day. Some entries give survivors of the animals treated and no T/C: the source files T/C as zero there, which appears to mark a toxic dose or a test without result, not a measured value. Counts of survivors are from the toxicity check (mostly the fifth day) where no day follows; animals may have died later. Some entries hold several experiments; the results are listed from low to high. *1 amine or outer side, *2 acyl side, *3 side chain or, on linkers, in order; H or OH if unused. Where a SMILES comes first, the peptide text is derived from it. [ ]: non-standard residue; d: D form. The star is where a group is joined. X2 = CCC(=O)CC1CC(C)CC(C(=O)[*:2])N1[*:1]; X1 = CCCCCCCCC(C)C(=O)*; Aib = CC(C)(N)C(=O)O; X3 = CC(CN(C)CCO)N*
# Tested on: BDF1 mice, colon carcinoma 38 sc, T/C %
# Test: NCI In Vivo Anticancer Drug Screen. Data for tumor model Colon Carcinoma 38 (subcutaneous) in B6D2F1 (BDF1) mice
# Conditions: T/C endpoint: median tumor weight (est.), higher T/C = larger tumour; for T/C: evaluated on day 20
# In short: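 Mice with transplanted tumors are treated with compound or vehicle. Survival or tumor size is then measured in both groups. The ratio of treated to control gives the reported figure.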
# [1] = dose: 50.0 mg/kg/injection, schedule: Q07DX002 (ip), vehicle: saline with Tween-80
# [2] = dose: 200.0 mg/kg/injection, schedule: Q07DX002 (ip), vehicle: saline with Tween-80
# [3] = dose: 400.0 mg/kg/injection, schedule: Q07DX002 (ip), vehicle: saline with Tween-80
# [4] = dose: 12.5 mg/kg/injection, schedule: Q07DX002 (ip), vehicle: saline with Tween-80
# [5] = dose: 100.0 mg/kg/injection, schedule: Q07DX002 (ip), vehicle: saline with Tween-80
# [6] = dose: 12.5 mg/kg/injection, schedule: Q07DX002 (ip), vehicle: saline
# [7] = dose: 25.0 mg/kg/injection, schedule: Q07DX002 (ip), vehicle: saline
# [8] = dose: 0.5 mg/kg/injection, schedule: Q07DX002 (ip), vehicle: saline
# [9] = dose: 40.0 mg/kg/injection, schedule: Q07DX002 (ip), vehicle: saline with Tween-80
# [10] = dose: 200.0 mg/kg/injection, schedule: Q07DX002 (ip), vehicle: saline
smiles,measurement,setting,value
CC[C@H](CC[C@@H](C)C1CC[C@H]2[C@@H]3CC=C4C[C@@H](OP(=O)(N5CC5)N5CC5)CC[C@]4(C)[C@H]3CC[C@]12C)C(C)C (stereo not given in full),T/C,[1],125 % of control
same,T/C,[2],144 % of control
same,T/C,[3],147 % of control
CCC1=C[C@H]2CN(CCc3c([nH]c4ccccc34)[C@@](C(=O)OC)(c3cc4c(cc3OC)N(C)[C@H]3[C@@](O)(C(=O)OC)[C@H](OC(C)=O)[C@]5(CC)C=CCN6CC[C@]43[C@@H]65)C2)C1,T/C,"dose: 1.0 mg/kg/injection, schedule: Q07DX002 (ip), vehicle: water",130 % of control
same,T/C,"dose: 4.0 mg/kg/injection, schedule: Q07DX002 (ip), vehicle: water",125 % of control
same,survivor count,"dose: 16.0 mg/kg/injection, schedule: Q07DX002 (ip), vehicle: water",2 of 10 on day 20
Cc1ccc(NCCN(C)C)c2c(=O)c3cc(O)ccc3sc12,survivor count,"dose: 400.0 mg/kg/injection, schedule: Q07DX002 (ip), vehicle: Klucel (hydroxypropylcellulose) (HPC)",4 of 10 on day 20 and 5 of 10 on day 20
C=CC(C)NC(=S)NNC(=S)NC (stereo not given),survivor count,"dose: 800.0 mg/kg/injection, schedule: Q07DX002 (ip), vehicle: saline + alcohol",6 of 10 on day 20
Cc1ncc([N+](=O)[O-])n1CCO,T/C,"dose: 37.5 mg/kg/injection, schedule: Q07DX002 (ip), vehicle: Klucel (hydroxypropylcellulose) (HPC)",137 % of control
same,T/C,"dose: 600.0 mg/kg/injection, schedule: Q04DX003 (ip), vehicle: Klucel (hydroxypropylcellulose) (HPC)",138 % of control
O=c1nc(Oc2ccccc2)nc2ncccn12,T/C,[4],133 % of control [8 of 10 alive on day 20]
same,T/C,"dose: 25.0 mg/kg/injection, schedule: Q07DX002 (ip), vehicle: saline with Tween-80",133 % of control [7 of 10 alive on day 20]
same,survivor count,[5],6 of 10 on day 20
same,survivor count,[2],0 of 10 on day 20
O=Cc1ccccc1,survivor count,[3],1 of 10 on day 20
same,survivor count,"dose: 800.0 mg/kg/injection, schedule: Q07DX002 (ip), vehicle: Klucel (hydroxypropylcellulose) (HPC)",6 of 10 on day 20
same,survivor count,"dose: 800.0 mg/kg/injection, schedule: Q07DX002 (ip), vehicle: saline with Tween-80",0 of 10 on day 20
O=c1[nH]cnc2c1ccn2C1OC(CO)C(O)C1O (stereo not given),survivor count,"dose: 48.0 mg/kg/injection, schedule: Q07DX002 (ip), vehicle: saline",0 of 10 on day 20
COC(OC(CO)C(O)S(=O)(=O)O)C(O)S(=O)(=O)O (stereo not given),T/C,[6],132 % of control
same,T/C,[7],135 % of control
CCCCCCCCCCCCCC#CC(=O)O,survivor count,[5],3 of 10 on day 20
same,survivor count,[2],0 of 10 on day 20
CCN1C=C/C(=C\C=C/c2cc[n+](CC)c3ccccc23)c2ccccc21,T/C,"dose: 0.25 mg/kg/injection, schedule: Q07DX002 (ip), vehicle: saline",127 % of control [9 of 10 alive]
same,T/C,[8],144 % of control
same,T/C,"dose: 500.0 micrograms/kg/injection, schedule: Q07DX002 (ip), vehicle: saline",138 % of control
same,T/C,"dose: 1000.0 micrograms/kg/injection, schedule: Q07DX002 (ip), vehicle: saline",139 % of control [9 of 10 alive]
CC1=CC(=NN=c2cc(C)n([O-])c(C)c2)C=C(C)[N+]1=O,T/C,"dose: 50.0 mg/kg/injection, schedule: Q07DX002 (ip), vehicle: suspension in saline",137 % of control
same,T/C,"dose: 100.0 mg/kg/injection, schedule: Q07DX002 (ip), vehicle: saline",127 % of control [9 of 10 alive on day 20]
same,survivor count,"dose: 800.0 mg/kg/injection, schedule: Q07DX002 (ip), vehicle: saline",3 of 10 on day 20
same,survivor count,"dose: 800.0 mg/kg/injection, schedule: Q07DX002 (ip), vehicle: suspension in saline",1 of 10 on day 20
NC(C(=O)O)c1ccc(CBr)cc1 (stereo not given),T/C,[5],142 % of control
same,survivor count,[2],5 of 10 on day 20
same,survivor count,[3],0 of 10 on day 20
OCC1OC(n2cnc3c(NO)nc(NO)nc32)C(O)C1O (stereo not given),survivor count,"dose: 400.0 mg/kg/injection, schedule: Q07DX002 (ip), vehicle: saline",3 of 8 on day 20
O=NN(CCCl)C(=O)NCCCl,T/C,"dose: 1.0 mg/kg/injection, schedule: Q07DX003 (ip), vehicle: saline with Tween-80",132 % of control
same,T/C,"dose: 4.0 mg/kg/injection, schedule: Q07DX002 (ip), vehicle: saline with Tween-80",141 % of control
same,survivor count,"dose: 32.0 mg/kg/injection, schedule: Q07DX002 (ip), vehicle: saline with Tween-80",5 of 10 on day 20
same,survivor count,[9],4 of 10 on day 20
same,survivor count,"dose: 48.0 mg/kg/injection, schedule: Q07DX002 (ip), vehicle: saline + alcohol",0 of 10 on day 20
same,survivor count,"dose: 64.0 mg/kg/injection, schedule: Q07DX002 (ip), vehicle: saline with Tween-80",0 of 10 on day 20
same,survivor count,"dose: 80.0 mg/kg/injection, schedule: Q07DX002 (ip), vehicle: saline with Tween-80",0 of 10 on day 20
CCOC(=O)Nc1cc2c(c(N)n1)N=C(c1ccccc1)CN2,survivor count,"dose: 20.0 mg/kg/injection, schedule: Q07DX002 (ip), vehicle: saline with Tween-80",4 of 10 on day 20
same,survivor count,[9],0 of 10 on day 20
NC(=S)c1ncn(C2OC(CO)C(O)C2O)c1N (stereo not given),T/C,[6],140 % of control
same,T/C,[7],131 % of control
C=C1C(=O)OC2CC(C)C3C4OC4C(O)C3(C)C(O)C12 (stereo not given),T/C,[10],127 % of control
O=C1c2ccccc2C(=O)c2c1cn1c2Cc2ccccc2C1,survivor count,"dose: 60.0 mg/kg/injection, schedule: Q01DX005 (iv), vehicle: other",6 of 10 on day 20
same,T/C,"dose: 150.0 mg/kg/injection, schedule: Q07DX002 (ip), vehicle: saline with Tween-80",137 % of control
same,survivor count,"dose: 150.0 mg/kg/injection, schedule: Q07DX002 (iv), vehicle: other",4 of 10 on day 20
same,survivor count,"dose: 300.0 mg/kg/injection, schedule: Q07DX002 (ip), vehicle: Klucel (hydroxypropylcellulose) (HPC)",0 of 10 on day 20
CCOC(=O)C1(c2ccccc2)C(=O)Oc2ccccc21 (stereo not given),T/C,[4],147 % of control
same,T/C,[1],138 % of control
same,T/C,[5],134 % of control
same,T/C,[2],144 % of control
CCCCCCCCC(C)C(=O)N1CCCC1C(=O)N1C(CC(=O)CC)CC(C)CC1C(=O)NC(C)C(=O)NC(C)(C)C(=O)NC(C)(C)C(=O)NC(C(=O)NC(C)C(=O)NC(C)(C)C(=O)NC(C)(C)C(=O)NC(C)CN(C)CCO)C(C)CC (stereo not given) (X1-P[X2]A[Aib][Aib]IA[Aib][Aib]-X3; configuration not given here),survivor count,"dose: 10.0 mg/kg/injection, schedule: Q07DX002 (ip), vehicle: Klucel (hydroxypropylcellulose) (HPC)",3 of 10 on day 20
same,survivor count,"dose: 20.0 mg/kg/injection, schedule: Q07DX002 (ip), vehicle: Klucel (hydroxypropylcellulose) (HPC)",0 of 10 on day 20
CC(C)CCCCCCCCCCCCC(=O)NCC(=O)NC1C(O)C(O)C(Nc2ncnc3nc[nH]c23)OC1C(O)CO (stereo not given),T/C,[8],141 % of control
same,survivor count,"dose: 8.0 mg/kg/injection, schedule: Q07DX002 (ip), vehicle: suspension in saline",3 of 10 on day 20
C1CC[N-]CC1.C1CC[N-]CC1.C1CC[N-]CC1.[Cl][Rh]([Cl])[Cl],T/C,[7],128 % of control
same,T/C,[10],131 % of control
